From article PMC12623751
Results are given in words; binding and its absence hold for the method and conditions named. In cells and extracts the contact can be indirect. Some binding calls cover weakened binding; strength is not graded here. One block for each substance: values may come before it.

The chains behind the UniProt entries cited, without tags or fusion partners. Where a name states a change or a piece, a line headed by the entry shows the natural chain unless it says otherwise.
UniProt P19474: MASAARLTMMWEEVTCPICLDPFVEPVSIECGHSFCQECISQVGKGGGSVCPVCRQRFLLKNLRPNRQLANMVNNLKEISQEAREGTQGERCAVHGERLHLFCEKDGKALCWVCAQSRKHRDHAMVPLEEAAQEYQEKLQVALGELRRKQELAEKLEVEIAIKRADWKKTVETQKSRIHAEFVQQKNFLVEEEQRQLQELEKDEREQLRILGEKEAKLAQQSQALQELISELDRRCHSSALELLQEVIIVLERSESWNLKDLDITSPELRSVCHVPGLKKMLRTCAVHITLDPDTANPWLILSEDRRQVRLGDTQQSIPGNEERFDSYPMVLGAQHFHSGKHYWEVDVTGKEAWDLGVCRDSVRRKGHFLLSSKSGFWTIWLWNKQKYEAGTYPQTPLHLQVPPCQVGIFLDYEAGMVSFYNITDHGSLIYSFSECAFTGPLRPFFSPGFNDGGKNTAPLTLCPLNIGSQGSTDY
UniProt Q9UIV1: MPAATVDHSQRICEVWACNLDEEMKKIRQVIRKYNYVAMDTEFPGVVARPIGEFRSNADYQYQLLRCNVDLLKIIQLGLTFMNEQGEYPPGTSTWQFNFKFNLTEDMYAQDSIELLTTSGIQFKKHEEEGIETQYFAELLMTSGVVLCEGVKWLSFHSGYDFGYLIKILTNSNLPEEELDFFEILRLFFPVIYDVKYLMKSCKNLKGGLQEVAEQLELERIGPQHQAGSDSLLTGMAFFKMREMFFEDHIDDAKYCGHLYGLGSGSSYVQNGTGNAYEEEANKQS
UniProt P12956: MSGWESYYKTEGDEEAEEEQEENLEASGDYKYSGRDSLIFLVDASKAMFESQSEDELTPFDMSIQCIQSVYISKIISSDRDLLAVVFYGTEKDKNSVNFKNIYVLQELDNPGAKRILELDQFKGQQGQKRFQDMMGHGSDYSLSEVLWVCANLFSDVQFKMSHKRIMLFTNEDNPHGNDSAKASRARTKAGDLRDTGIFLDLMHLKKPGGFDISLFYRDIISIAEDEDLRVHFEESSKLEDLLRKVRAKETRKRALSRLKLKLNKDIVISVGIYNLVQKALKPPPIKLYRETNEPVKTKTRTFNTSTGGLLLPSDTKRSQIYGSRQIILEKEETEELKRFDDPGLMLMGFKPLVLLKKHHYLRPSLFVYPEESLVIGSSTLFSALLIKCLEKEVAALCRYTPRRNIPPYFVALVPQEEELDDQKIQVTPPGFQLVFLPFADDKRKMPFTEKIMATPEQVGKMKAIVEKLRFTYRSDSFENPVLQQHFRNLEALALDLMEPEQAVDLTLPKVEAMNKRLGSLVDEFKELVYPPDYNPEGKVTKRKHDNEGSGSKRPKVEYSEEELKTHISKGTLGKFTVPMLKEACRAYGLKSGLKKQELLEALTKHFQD

Assays:
[1] = molecular target: Tripartite motif containing 21 (TRIM21) (human (endogenous in HCT116 and SW480)) (UniProt P19474); test: co-IP; XRCC6-WT against XRCC6 K526R with TRIM21 (Fig. S5E, F); method, cells and bait not told in the text shown
[2] = molecular target: Tripartite motif containing 21 (TRIM21) (human (endogenous in HCT116 and SW480)) (UniProt P19474); test: co-IP; endogenous proteins; HCT116 and SW480 lysates (IP lysis buffer), incubated at 4 °C with IgG or the antibody against the bait, then beads; immunoblot
[3] = molecular target: CCR4-NOT transcription complex subunit 7 (CNOT7) (human (endogenous in HCT116 and SW480)) (UniProt Q9UIV1); test: as above
[4] = molecular target: X-ray repair cross complementing 6 (XRCC6) (human (endogenous in HCT116 and SW480)) (UniProt P12956); test: as above

binding [1]: binds
Substance: XRCC6-WT (overexpressed) (from UniProt P12956 1-609)

binding [1]: binds
Substance: XRCC6 K526R mutant (from UniProt P12956 1-609)

binding [2]: binds
binding [3]: binds
Substance: X-ray repair cross complementing 6 (XRCC6) (from UniProt P12956 1-609)

binding [4]: binds
Substance: CCR4-NOT transcription complex subunit 7 (CNOT7) (from UniProt Q9UIV1 1-285)
